Laboratory results from US20190144550A1.
Changes are numbered by the printed parent chain. These are yes or no findings as the source states them, for the method shown. A result given as binding can be weak or reduced; the word gives no strength. Sequences can lack the tags named with a protein.

B1: h62G7-L6/EQ scFv-Fc protein (Fc fusion, not shown: a dimerising Fc or GST)
chain: DVVMTQSPLSLPVTLGQPASISCKSSQSLLYSNGKTYLNWFQQRPGQSPRRLIYQVSKLDSGVPDRFSGSGSGTDFTLKISRVEAEDVGVYYCGQDTHFPLTFGGGTKVEIKGGGGSGGGGSGGGGSGGGGSQVQLVQSGAEVKKPGASVKVSCKASGYTFTDYTLHWVRQAPGQGLEWMGGIWPITGGTTYNQKFKGRVTMTRDTSTSTVYMELSSLRSEDTAVYYCARGEAQGSWGQGTLVTVSS
B2: 14C11.HL scFv-Fc protein (Fc fusion, not shown: a dimerising Fc or GST)
chain: QVTLKESGPVLVKPTETLTLTCTVSGFSLNNARMGVSWIRQPPGKALEWFAHIFSTDEKSFRTSLRSRLTLSKDTSKSQVVLTMTNMDPVDTATYYCARDSSNYEGYFDYWGQGILVTVSSGGGGSGGGGSGGGGSGGGGSEIVMTQSPATLSVSPGERATLSCRASQSVSNNLAWYQQKPGQAPRLLIYGASTRATGVPARFSGSDSGTEFSLTISSLQSEDFAVYFCQQYKDWPFTFGPGTKVEIK
B3: 14C11.LH scFv-Fc protein (Fc fusion, not shown: a dimerising Fc or GST)
chain: EIVMTQSPATLSVSPGERATLSCRASQSVSNNLAWYQQKPGQAPRLLIYGASTRATGVPARFSGSDSGTEFSLTISSLQSEDFAVYFCQQYKDWPFTFGPGTKVEIKGGGGSGGGGSGGGGSGGGGSQVTLKESGPVLVKPTETLTLTCTVSGFSLNNARMGVSWIRQPPGKALEWFAHIFSTDEKSFRTSLRSRLTLSKDTSKSQVVLTMTNMDPVDTATYYCARDSSNYEGYFDYWGQGILVTVSS
B4: 20B9.HL scFv-Fc protein (Fc fusion, not shown: a dimerising Fc or GST)
chain: QVTLKESGPVLVKPTETLTLTCTVSGFSLSNARMGVSWIRQPPGKALEWLGHIFSTDEKSYSTSLRGRITISKDTSRGLVVLTLTNMDPVDTATYYCARDSSNYEGYFDFWGPGFLVTVSSGGGGSGGGGSGGGGSGGGGSEIVMTQSPATLSVSPGERATLSCRVSQSIGANLAWYQQKFGQAPRLLIYGASTRATGIPVRFSGGGSGTEFTLTISSLQSEDFAIYSCQQYIYWPFTFGPGTTVDIK
B5: 20B9.LH scFv-Fc protein (Fc fusion, not shown: a dimerising Fc or GST)
chain: EIVMTQSPATLSVSPGERATLSCRVSQSIGANLAWYQQKFGQAPRLLIYGASTRATGIPVRFSGGGSGTEFTLTISSLQSEDFAIYSCQQYIYWPFTFGPGTTVDIKGGGGSGGGGSGGGGSGGGGSQVTLKESGPVLVKPTETLTLTCTVSGFSLSNARMGVSWIRQPPGKALEWLGHIFSTDEKSYSTSLRGRITISKDTSRGLVVLTLTNMDPVDTATYYCARDSSNYEGYFDFWGPGFLVTVSS
B6: 32A10.HL scFv-Fc protein (Fc fusion, not shown: a dimerising Fc or GST)
chain: QVTLKESGPVLVKPTETLTLTCTVSGFSLSNARMGVSWIRQPPGKALEWLAHIFSTDEKSIRRSLRSRLTLSKDTSKSQVVLTMTNMDPVDTATYFCARDSSNYEGYFDYWGQGTLVTVSSGGGGSGGGGSGGGGSGGGGSEVVMTQSPATLSVSPGERVTLSCRASQSVSSNFAWYQQRPGQAPRLLLYGATTRATGLPGRFSGSGSGTENILTISSLQSEDFAIYFCQQYKDWPFTFGPGSKVDIK
B7: 32A10.LH scFv-Fc protein (Fc fusion, not shown: a dimerising Fc or GST)
chain: EVVMTQSPATLSVSPGERVTLSCRASQSVSSNFAWYQQRPGQAPRLLLYGATTRATGLPGRFSGSGSGTENILTISSLQSEDFAIYFCQQYKDWPFTFGPGSKVDIKGGGGSGGGGSGGGGSGGGGSQVTLKESGPVLVKPTETLTLTCTVSGFSLSNARMGVSWIRQPPGKALEWLAHIFSTDEKSIRRSLRSRLTLSKDTSKSQVVLTMTNMDPVDTATYFCARDSSNYEGYFDYWGQGTLVTVSS
B8: 42G9.HL scFv-Fc protein (Fc fusion, not shown: a dimerising Fc or GST)
chain: QVTLKESGPVLLKPTETLTLTCTVSGFSLSNPRMGVSWIRQPPGKALEWFAHIFSTDEKSLKLSLRSRLTLSKDTSKSQVVLTMTNMAPVDSATYYCARDSSNYEGYFDFWGQGTLVTVSSGGGGSGGGGSGGGGSGGGGSEVVLTQSPATLSVSPGERATLSCRASQSVRSNLAWYQQKSGQAPRLLIYGSTIRATGVPARFSGSGSGTEFTLTISSLQSEDFAVYYCQQYSDWPFTFGPGTKVDIK
B9: 42G9.LH scFv-Fc protein (Fc fusion, not shown: a dimerising Fc or GST)
chain: EVVLTQSPATLSVSPGERATLSCRASQSVRSNLAWYQQKSGQAPRLLIYGSTIRATGVPARFSGSGSGTEFTLTISSLQSEDFAVYYCQQYSDWPFTFGPGTKVDIKGGGGSGGGGSGGGGSGGGGSQVTLKESGPVLLKPTETLTLTCTVSGFSLSNPRMGVSWIRQPPGKALEWFAHIFSTDEKSLKLSLRSRLTLSKDTSKSQVVLTMTNMAPVDSATYYCARDSSNYEGYFDFWGQGTLVTVSS
B10: 26B9.HL scFv-Fc protein (Fc fusion, not shown: a dimerising Fc or GST)
chain: EVQLVESWGVLVKPGGSLRLSCAASGFIFNNAWMSWVRQAPGKGLEWIGRIKSKSDGGTTDYAAPVKDRFTISRDDSKDTLYLQMNGLKTEDTAVYFCTTAPGGPFDYWGQGTLVTVSSGGGGSGGGGSGGGGSGGGGSDIVLTQSPLSLPVTPGEPASISCRSSQSLLHRDGFNYLDWFLQKPGQSPQLLIYLASSRASGVPDRFSGSDSGTDFTLKISRVEAEDVGVYYCMQALQTPITFGQGTRLEIK
B11: 26B9.LH scFv-Fc protein (Fc fusion, not shown: a dimerising Fc or GST)
chain: DIVLTQSPLSLPVTPGEPASISCRSSQSLLHRDGFNYLDWFLQKPGQSPQLLIYLASSRASGVPDRFSGSDSGTDFTLKISRVEAEDVGVYYCMQALQTPITFGQGTRLEIKGGGGSGGGGSGGGGSGGGGSEVQLVESWGVLVKPGGSLRLSCAASGFIFNNAWMSWVRQAPGKGLEWIGRIKSKSDGGTTDYAAPVKDRFTISRDDSKDTLYLQMNGLKTEDTAVYFCTTAPGGPFDYWGQGTLVTVSS
B12: 30D8.HL scFv-Fc protein (Fc fusion, not shown: a dimerising Fc or GST)
chain: EVQLVESGGGLVKPGGSLRLSCEASGFTFSDAWMSWVRQAPGKGLEWVGRIKSKTDGGTTDYVVPLNGRFIISRDDSRNTLYLQLNNLKTEDTAVYYCTTVPGSYGYWGQGTLVTVSSGGGGSGGGGSGGGGSGGGGSDIVMTQSPLSLPVTPGEPASISCRSSQSLLHNKRNNYLDWFLQKPGQSPQLLIYLASNRASGVPDRFSGGGSGTDFTLKISRVEAEDVGVYYCMQAQQTPITFGQGTRLEIK
B13: 30D8.LH scFv-Fc protein (Fc fusion, not shown: a dimerising Fc or GST)
chain: DIVMTQSPLSLPVTPGEPASISCRSSQSLLHNKRNNYLDWFLQKPGQSPQLLIYLASNRASGVPDRFSGGGSGTDFTLKISRVEAEDVGVYYCMQAQQTPITFGQGTRLEIKGGGGSGGGGSGGGGSGGGGSEVQLVESGGGLVKPGGSLRLSCEASGFTFSDAWMSWVRQAPGKGLEWVGRIKSKTDGGTTDYVVPLNGRFIISRDDSRNTLYLQLNNLKTEDTAVYYCTTVPGSYGYWGQGTLVTVSS
B14: 20E12.HL scFv-Fc protein (Fc fusion, not shown: a dimerising Fc or GST)
chain: EVNLVESGGGLVKPGGSLRLSCEASGFTFSYAWMSWVRQAPGKGLEWVGRIKSIADGGATDYAAPVRNRFTISRDDSRNTLYLEMHSLKTEDTAVYYCTTIPGNDAFDMWGQGTMVTVSSGGGGSGGGGSGGGGSGGGGSDIVLTQSPLSLSVTPGEPASISCRSSQSLLYSNGKNYLDWFLHKPGQSPQLLIYLGSNRASGVPDRFSGSGSGIDFILKISRVEAEDVGVYYCMQAQQTPITFGQGTRLEIK
B15: 20E12.LH scFv-Fc protein (Fc fusion, not shown: a dimerising Fc or GST)
chain: DIVLTQSPLSLSVTPGEPASISCRSSQSLLYSNGKNYLDWFLHKPGQSPQLLIYLGSNRASGVPDRFSGSGSGIDFILKISRVEAEDVGVYYCMQAQQTPITFGQGTRLEIKGGGGSGGGGSGGGGSGGGGSEVNLVESGGGLVKPGGSLRLSCEASGFTFSYAWMSWVRQAPGKGLEWVGRIKSIADGGATDYAAPVRNRFTISRDDSRNTLYLEMHSLKTEDTAVYYCTTIPGNDAFDMWGQGTMVTVSS
B16: 32G8.HL scFv-Fc protein (Fc fusion, not shown: a dimerising Fc or GST)
chain: B14 chain with A55T, A59V, T60I, F70C, A106D, T114R

Target: Monomeric 8-histidine tagged human EGFRvIII extracellular domain (human)
Assay: SPR, scFv-Fc captured by anti-human Fc, 37 C

binding, binds:
B1
B2
B3
B4
B5
B6
B7
B8
B9
B10
B11
B12
B13
B14
B15
B16
